{
  "source": "PubChem BioAssay AID651640",
  "about": "(Broad Institute, 2012)",
  "note": "Screen size: about 350,000 compounds; about 6,000 (1.7%) were called active. Inconclusive results, whose numbers are uncertain, are shown with a selection of clear calls. Cut-off read from the data, not from the text of the source: active = CPE inhibition above about 20% (passing the limit was not always enough); inconclusive = no clear call, values can overlap the other calls; tested in BHK-21 cells.",
  "data": [
    {"assay": "protection of cells from dengue 2 killing – plate reader, single concentration, primary screen (AID 651640);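 note: 0% = median of neutral control wells and 100% = median of positive control wells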", "conditions": "DENV2-infected cells, cytopathic effect rescue, at 9.99 µM, hits give high values", "values": [
      {"compound": "COc1ccccc1CN(C)C[C@@H]1OCc2ccccc2-c2c(n(C)c3ccccc23)C(=O)N([C@@H](C)CO)C[C@@H]1C", "CPE inhibition": "inactive: -1.68%"},
      {"compound": "CCN(CC(=O)NC1CCS(=O)(=O)C1)S(=O)(=O)c1ccc(Cl)c(C(F)(F)F)c1", "note": "(configuration not stated)", "CPE inhibition": "inconclusive: 45.8%"},
      {"compound": "C=CCN=C1NC(c2cccc(Cl)c2)C(C(=O)OC)=C(C)N1Cc1ccc(C(F)(F)F)cc1", "note": "(configuration not stated)", "CPE inhibition": "inconclusive: 21.7%"},
      {"compound": "O=C(C[C@H]1CC[C@H]2[C@@H](COC[C@@H](O)CN2C(=O)c2ccccc2F)O1)N1CCN(c2ccccc2)CC1", "CPE inhibition": "inactive: -5.03%"},
      {"compound": "COc1ccc(NC(=O)c2cccn(CC=C(C)C)c2=O)cc1", "CPE inhibition": "inactive: 0.864%"},
      {"compound": "NC(=O)[C@@H]1CC2(CC(c3cccc(NC(=O)COc4ccc(Cl)cc4)c3)=NO2)CN1C(=O)c1ccccc1", "note": "(some centres not stated)", "CPE inhibition": "active: 65.7%"},
      {"compound": "Cc1ccc(C(=O)NCc2ccccc2F)cc1S(=O)(=O)N1CCCC1", "CPE inhibition": "inconclusive: 22.4%"},
      {"compound": "Cc1noc(C)c1NC(=O)Nc1cccc2c1O[C@@H](CN(C)S(=O)(=O)c1cccs1)[C@H](C)CN([C@H](C)CO)C2=O", "CPE inhibition": "inconclusive: 20.8%"},
      {"compound": "CCOc1ccc(NC(=O)CC2C(=O)N(c3ccc(OC)cc3)C(=O)N2Cc2ccc(OC)cc2)cc1", "note": "(configuration not stated)", "CPE inhibition": "inconclusive: 55.5%"},
      {"compound": "CN1CCCC1CCNc1ccc2sc3ccccc3c(=O)c2c1", "note": "(configuration not stated)", "CPE inhibition": "active: 27.4%"},
      {"compound": "O=C1CN(C(=O)NCC(=O)N2CCCC2)c2ccccc2N1", "CPE inhibition": "inconclusive: 32.2%"},
      {"compound": "C[C@@H]1CN([C@H](C)CO)C(=O)CCCn2cc(nn2)CO[C@H]1CN(C)C(=O)Nc1cccc2ccccc12", "CPE inhibition": "inconclusive: 21.7%"},
      {"compound": "COP(=O)(OC)C(Nc1ccc(C)cc1)c1ccc(Br)cc1", "note": "(configuration not stated)", "CPE inhibition": "inconclusive: 32.3%"},
      {"compound": "COc1ccccc1CNC(=O)[C@H](C)NC(=O)C1CCN(C(=O)[C@H](CCSC)NC(=O)OC(C)(C)C)CC1", "CPE inhibition": "inconclusive: 62.6%"},
      {"compound": "CC1OC(Nc2ccc(N=Nc3ccccc3)cc2)C(O)C(O)C1O", "note": "(configuration not stated)", "CPE inhibition": "inconclusive: 54.2%"},
      {"compound": "O=C(NCc1ccccc1)c1cc(C2CCCCN2S(=O)(=O)c2ccccc2)on1", "note": "(configuration not stated)", "CPE inhibition": "inconclusive: 54.1%"},
      {"compound": "O=C(CN1CCOCC1)N1CC(=O)N2[C@H](C1)[C@H](c1ccc(-c3cccc(F)c3)cc1)[C@@H]2CO", "CPE inhibition": "inactive: -3.93%"},
      {"compound": "COc1ccc(OCC(=O)Nc2ccc3c(c2)nc(CCN2CCN(c4ccccn4)CC2)n3C)cc1", "CPE inhibition": "inconclusive: 21%"},
      {"compound": "O=C(CCNC(=O)C1CCN(S(=O)(=O)c2ccc(F)cc2)CC1)NCCc1cccc(F)c1", "CPE inhibition": "inconclusive: 26.3%"},
      {"compound": "COc1ccc(OC)c(Nc2nc(N(C)c3ccccc3)nc(N)c2[N+](=O)[O-])c1", "CPE inhibition": "inconclusive: 20.5%"},
      {"compound": "C(=C(c1ccccc1)c1ccccc1)c1ccccn1", "CPE inhibition": "active: 54.3%"},
      {"compound": "CCN(CC(=O)NCc1cccs1)C(=O)/C=C/c1cccc(OC)c1OC", "CPE inhibition": "inconclusive: 24.6%"},
      {"compound": "CC(=O)Nc1ccc(S(=O)(=O)Nc2ccc3nc(C)sc3c2)cc1", "CPE inhibition": "inactive: -7.01%"},
      {"compound": "O=C1CCCCCCC(=O)[C@H](O)C[C@H](c2ccccc2)O1", "CPE inhibition": "active: 49.7%"},
      {"compound": "CCC(C)(C)C1CCc2[nH]nc(C(=O)NCc3ccccn3)c2C1", "note": "(configuration not stated)", "CPE inhibition": "active: 77%"},
      {"compound": "C[C@@H]1CN([C@H](C)CO)C(=O)c2c(c3ccccc3n2C)-c2ccccc2CO[C@H]1CN(C)S(=O)(=O)c1cn(C)cn1", "CPE inhibition": "inconclusive: 42.2%"},
      {"compound": "O=C(NC1CCCC1)C(c1cccnc1)N(Cc1ccccc1)C(=O)c1csnn1", "note": "(configuration not stated)", "CPE inhibition": "inconclusive: 30.7%"},
      {"compound": "Cc1nn(-c2ccccc2)c(C)c1NC(=O)COC(=O)c1cc([N+](=O)[O-])ccc1NCCO", "CPE inhibition": "inactive: 9.66%"},
      {"compound": "CC1CCc2[nH]c3ccc(C(=O)N(C)CC(=O)Nc4ccccc4Br)cc3c2C1", "note": "(configuration not stated)", "CPE inhibition": "inconclusive: 41.3%"},
      {"compound": "C[C@H](CO)N1C[C@H](C)[C@H](CN(C)Cc2ccccc2)Oc2ncc(C#CCc3ccccc3)cc2C1=O", "CPE inhibition": "inactive: 8.55%"},
      {"compound": "CN1C(=O)c2cc(NC(=O)Cc3ccccc3)ccc2OC[C@@H]2O[C@@H](CC(=O)NCC3CC3)CC[C@H]21", "CPE inhibition": "inconclusive: 32.6%"},
      {"compound": "CCCS(=O)(=O)NC(=O)C1(C)CCCN(C(=O)c2ccccc2Br)C1", "note": "(configuration not stated)", "CPE inhibition": "inconclusive: 70.6%"},
      {"compound": "CC(C)NC(=O)Nc1cccc2c1O[C@H](CN(C)C(=O)NC(C)C)[C@@H](C)CN([C@H](C)CO)C2=O", "CPE inhibition": "inconclusive: 33.1%"},
      {"compound": "CC(=O)c1c(C)nc2sc3c(=N)n(N)cnc3c2c1-c1ccc(Cl)cc1", "CPE inhibition": "inconclusive: 39.5%"},
      {"compound": "CCCNC(=O)Nc1ccc2c(c1)OC[C@@H](C)N(CCC(F)(F)F)C[C@@H](C)[C@@H](OC)CN(C)C2=O", "CPE inhibition": "inactive: -3.22%"},
      {"compound": "CN(C)CCN1CCN(C(c2ccnc3ccccc23)c2nnnn2-c2ccc3c(c2)OCCO3)CC1", "note": "(configuration not stated)", "CPE inhibition": "active: 21.5%"},
      {"compound": "COc1ccc(CCNC(=O)c2cc(=O)c3cc(C)ccc3o2)cc1", "CPE inhibition": "inconclusive: 24.6%"},
      {"compound": "CCN(CC)CCCC(C)Nc1nccc2c(Cl)cccc12", "note": "(configuration not stated)", "CPE inhibition": "active: 48.7%"},
      {"compound": "O=C1NC(=O)C(c2ccc(Cl)cc2Cl)N1", "note": "(configuration not stated)", "CPE inhibition": "inconclusive: 40.9%"},
      {"compound": "COCC(=O)Nc1ccc2c(c1)C(=O)N(C)[C@H]1CC[C@H](CC(=O)O)O[C@@H]1CO2", "CPE inhibition": "inconclusive: 26.3%"},
      {"compound": "C[n+]1ccccc1/C=C/c1cc(Br)ccc1O", "CPE inhibition": "inactive: -3.9%"},
      {"compound": "CC(Oc1ccc(Br)cc1)C(=O)NC1CCN(Cc2ccccc2)CC1", "note": "(configuration not stated)", "CPE inhibition": "inconclusive: 24.7%"},
      {"compound": "O=C(NC1CCCC1)c1ccc(COc2ccccc2Br)o1", "CPE inhibition": "inconclusive: 21.2%"},
      {"compound": "Cc1noc(C)c1NC(=O)Nc1ccc2c(c1)CC(=O)N([C@H](C)CO)C[C@@H](C)[C@@H](CN(C)C(=O)Nc1ccc(F)cc1)O2", "CPE inhibition": "inconclusive: 29.5%"},
      {"compound": "On1ccccc1=S", "CPE inhibition": "inactive: 6.03%"},
      {"compound": "C/C(=N\\NC(=O)c1ccc(-n2cnnn2)cc1)c1ccc(Cl)cc1", "CPE inhibition": "inconclusive: 56.3%"},
      {"compound": "O=C1C(=Cc2cn(-c3ccccc3)nc2-c2ccc(OCc3ccccc3)cc2)SC(=S)N1CCS(=O)(=O)O", "CPE inhibition": "inconclusive: 28%"},
      {"compound": "COc1cc(NC(=O)c2sc(C)nc2C)c(OC)cc1NC(=O)c1ccccc1", "CPE inhibition": "inconclusive: 28.3%"},
      {"compound": "C[C@H](CO)N1C[C@H](C)[C@@H](CN(C)C(=O)C2CC2)Oc2cc(-c3cccc(F)c3)ccc2S1(=O)=O", "CPE inhibition": "inconclusive: 35.8%"},
      {"compound": "NCCCC[C@@H](C(=O)NCCCCCCCCCCC(=O)N1CCNCC1)n1cc(CCO)nn1", "CPE inhibition": "inconclusive: 20.6%"},
      {"compound": "O=C(c1cc([N+](=O)[O-])ccc1Cl)N1c2ccccc2Sc2ccccc21", "CPE inhibition": "inconclusive: 48.8%"},
      {"compound": "C#CCOCCOCCOCCNc1nc(N2CCOCC2)nc(N2CCN(C(=O)[C@H](CCCCN)n3cc(CCC(=O)O)nn3)CC2)n1", "CPE inhibition": "inconclusive: 74.5%"},
      {"compound": "C[C@@H]1CCCCO[C@@H](CN(C)C(=O)C2CCCCC2)[C@@H](C)CN([C@@H](C)CO)C(=O)c2cc(NC(=O)C3CCCCC3)ccc2O1", "CPE inhibition": "inactive: 1.93%"},
      {"compound": "COc1ccc(S(=O)(=O)N(C)C[C@@H]2Oc3c(NC(=O)CCCCCC(=O)Nc4ccccc4N)cccc3C(=O)N([C@@H](C)CO)C[C@H]2C)cc1", "CPE inhibition": "inactive: 7.67%"},
      {"compound": "CO[C@H]1CN(C)C(=O)c2cc(NC(=O)C3CC3)ccc2OC[C@H](C)N(C(=O)c2cccnc2)C[C@@H]1C", "CPE inhibition": "inconclusive: 34%"},
      {"compound": "Cc1cccc(S(=O)(=O)NC(=O)C2(C)CCN2C(=O)CCc2ccccc2)c1", "note": "(configuration not stated)", "CPE inhibition": "inactive: 1.37%"},
      {"compound": "CC(=O)C[C@H]1c2cc(C(F)(F)F)ccc2S(=O)(=O)N1c1ccc(N(C)C)cc1", "CPE inhibition": "inconclusive: 64.1%"},
      {"compound": "COCC(=O)Nc1ccc2c(c1)C(=O)N(C)[C@H]1CC[C@H](CC(=O)Nc3ccccc3F)O[C@@H]1CO2", "CPE inhibition": "inconclusive: 56.7%"},
      {"compound": "CC/C(C)=N/Nc1nc2c(c(=O)[nH]c(=O)n2C)n1Cc1ccccc1", "CPE inhibition": "inconclusive: 35.3%"},
      {"compound": "C[C@H](CO)N1C[C@H](C)[C@H](CN(C)S(=O)(=O)c2ccc(F)cc2)Oc2c(NC(=O)Nc3ccc4c(c3)OCO4)cccc2C1=O", "CPE inhibition": "inconclusive: 47.9%"},
      {"compound": "CCOCc1c(C(=O)OCC(=O)/C(C#N)=C(\\C)N)oc2ccccc12", "CPE inhibition": "inconclusive: 27.2%"},
      {"compound": "C[C@H](CO)N1C[C@H](C)[C@H](CN(C)C)Oc2cc(C#Cc3ccncc3)ccc2S1(=O)=O", "CPE inhibition": "inconclusive: 22%"},
      {"compound": "C[C@@H]1CCCCO[C@H](CN(C)C(=O)Cc2ccccc2)[C@@H](C)CN([C@@H](C)CO)C(=O)c2cc(NS(=O)(=O)c3ccc(Cl)cc3)ccc2O1", "CPE inhibition": "inactive: 1.27%"},
      {"compound": "C[C@@H]1CCCCO[C@@H](CN(C)S(=O)(=O)c2cccs2)[C@H](C)CN([C@H](C)CO)C(=O)c2cc(NS(=O)(=O)c3ccccc3)ccc2O1", "CPE inhibition": "inconclusive: 34.5%"},
      {"compound": "COc1ccc(CN(C)C[C@H]2OCCCC[C@H](C)Oc3ccc(NC(=O)c4ccccc4)cc3C(=O)N([C@@H](C)CO)C[C@@H]2C)cc1", "CPE inhibition": "inactive: 10.3%"},
      {"compound": "O=C(C[C@H]1C=C[C@H](NC(=O)Cc2ccccn2)[C@@H](CO)O1)NCCc1ccccc1", "CPE inhibition": "inconclusive: 32.6%"},
      {"compound": "CC(C)NC(=O)Nc1ccc2c(c1)C(=O)N(C)[C@H]1CC[C@@H](CC(=O)NCC3CCCCC3)O[C@H]1CO2", "CPE inhibition": "active: 35%"},
      {"compound": "COc1cccc(NC(=O)CN(C)C(=O)CSC(=S)N2CCCC2)c1", "CPE inhibition": "active: 31.4%"},
      {"compound": "CCN1CCN(c2cc(C)c3cc(NC(=S)N4CC(C)CC(C)C4)ccc3n2)CC1", "note": "(configuration not stated)", "CPE inhibition": "inactive: 2.31%"},
      {"compound": "N#Cc1c(SCC(=O)Nc2ccccc2C(F)(F)F)sc2c(O)cc(=O)[nH]c12", "CPE inhibition": "inactive: 5.91%"},
      {"compound": "C[C@@H]1CN([C@H](C)CO)C(=O)c2c(c3ccccc3n2C)-c2ccccc2CO[C@@H]1CN(C)Cc1cccc(C(F)(F)F)c1", "CPE inhibition": "inconclusive: 47.4%"},
      {"compound": "O=C1C2CCCN2C(=O)N1CCCN1CCN(c2cccc(Br)c2)CC1", "note": "(configuration not stated)", "CPE inhibition": "inconclusive: 32.6%"}
    ]}
  ]
}
